About 3,700 (1.2%) of roughly 300,000 compounds were called active. This list was built around the results that the source calls inconclusive (neither active nor inactive); the mix of calls is not that of the screen. Calls come from the whole dose curve; tested in HEK293 cells. Where the call is inconclusive, the potency comes from a doubtful curve fit.
Test: qHTS for Inhibitors of binding or entry into cells for Lassa Virus; note: nearly all actives have a fitted effect of over 50% in size
Conditions: Lassa virus pseudotype entry inhibition, cell reporter; series mostly up to 37.9 µM
Potency is the fitted concentration of half-maximal effect.

| SMILES | Potency |
| --- | --- |
| Cn1ncc([N+](=O)[O-])c1C(=O)Nc1ccc(-c2ccccc2)cc1 | inconclusive: 31.6 µM [activator, single point] |
| Cc1ccc(/C=N/N2CCN(c3ccncc3S(=O)(=O)N3CCCCC3)CC2)cc1 | inactive |
| Cc1ccc(N2CCN(C(=O)Cn3ncc4c([nH]c5ccc(C)cc54)c3=O)CC2)c(C)c1 | inactive |
| N#CC1(Nc2ccc(Br)cc2)CCCC1 | inconclusive: 6.31 µM [inhibitor, single point] |
| O=C(Cc1ccccc1)NC(NCCc1ccccc1)C(Cl)(Cl)Cl (stereo not given) | inconclusive: 35.5 µM [inhibitor, single point] |
| CC(C)c1ccc(Nc2sc(C(=O)c3ccccc3)c(N)c2S(=O)(=O)c2ccccc2)cc1 | inconclusive: 0.794 µM [inhibitor, full curve, poor fit] |
| CCOC(=O)C1(CC2CCCCO2)CCN(Cc2c(C)cc(C)cc2-n2cccn2)CC1 (stereo not given) | inactive |
| COC(=O)c1cc2c(-c3ccccc3)c(C)c3ccccn3c-2c1C(=O)OC | inconclusive: 35.5 µM [inhibitor, single point] |
| N/C(=N\OC(=O)C12CC3CC(CC(C3)C1)C2)c1ccccc1 | inconclusive: 13 µM [inhibitor, partial curve, poor fit] |
| O=S(=O)(c1ccc(Cl)cc1)N1CCN(C(=S)Nc2ccccc2F)CC1 | inactive |
| CCOc1ccc(C(=O)NCC(=O)OCCCOC(=O)CNC(=O)c2ccc(OCC)cc2)cc1 | inactive |
| CCC(=O)N(CCC(Cc1ccccc1)c1ccco1)Cc1ccco1 (stereo not given) | inconclusive: 10 µM [inhibitor, partial curve, poor fit] |
| CCn1ccnc1CN(C)C(=O)c1cc(COc2ccccc2SC)on1 | inactive |
| CC(=O)c1c(COC(=O)c2ccco2)nc2ccccc2[n+]1[O-] | inactive |
| O=C(Nc1cccc(C(=O)NC2CCCCC2)c1)c1ccccc1 | inconclusive: 20 µM [inhibitor, single point] |
| CCN(CC)c1ccc(C=NN2CCCCCC2)cc1 | inconclusive: 35.5 µM [inhibitor, single point] |
| COc1ccc(-c2cc(-c3ccccc3)nc(NN)n2)cc1OC | inconclusive: 17.8 µM [inhibitor, single point] |
| CCOC(=O)C1CCCN(C(=O)c2ccc(S(=O)(=O)NCc3ccco3)cc2)C1 (stereo not given) | inactive |
| COc1ccc(NC(=S)N2CCC(Cc3ccccc3)CC2)cc1 | inconclusive: 20 µM [inhibitor, partial curve, poor fit] |
| COc1ccc2[nH]c(-c3cccc(F)c3)cc(=O)c2c1 | inactive |

An excerpt of these results, with tabs:
SMILES	Potency
COc1ccc(-c2cc(-c3ccccc3)nc(NN)n2)cc1OC	inconclusive: 17.8 µM [inhibitor, single point]
CCOC(=O)C1CCCN(C(=O)c2ccc(S(=O)(=O)NCc3ccco3)cc2)C1 (stereo not given)	inactive

Reference: PubChem BioAssay AID540256 (National Center for Advancing Translational Sciences (NCATS), 2011)
